Here are results for 1 substance from article PMC12462960.

Protein sequences, listed by entry. Tags and fused reporters are not part of them. Residues count along the entry.
UniProt P80188, residues 21-198: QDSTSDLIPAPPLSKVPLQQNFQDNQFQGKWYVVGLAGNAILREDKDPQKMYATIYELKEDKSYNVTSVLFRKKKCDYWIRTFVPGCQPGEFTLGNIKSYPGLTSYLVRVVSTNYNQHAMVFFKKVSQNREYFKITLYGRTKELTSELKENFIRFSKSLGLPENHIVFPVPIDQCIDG

This test has as its target T1, Flag-FBXO2 (F-box only protein 2), stably expressed in human NP cells (UniProt Q9UK22).
T1 sequence: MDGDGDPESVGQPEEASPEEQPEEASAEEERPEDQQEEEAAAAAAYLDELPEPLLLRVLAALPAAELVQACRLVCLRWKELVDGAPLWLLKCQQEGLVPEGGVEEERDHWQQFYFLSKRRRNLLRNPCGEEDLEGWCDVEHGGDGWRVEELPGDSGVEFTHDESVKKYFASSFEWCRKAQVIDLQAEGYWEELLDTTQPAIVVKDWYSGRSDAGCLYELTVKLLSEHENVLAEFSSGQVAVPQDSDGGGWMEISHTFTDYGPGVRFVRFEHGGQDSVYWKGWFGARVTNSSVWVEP
Put plainly: affinity purification with mass spectrometry; lysate of human NP cells stably expressing Flag-FBXO2 or empty vector; IP buffer (100 mM NaCl, 20 mM Tris-HCl pH 8.0, 0.5 mM EDTA, 0.5% NP-40); ANTI-FLAG M2 Affinity Gel overnight at 4 °C; SDS-PAGE, Coomassie, MS.

Results are given in words; binding and its absence hold for the method and conditions named. In cells and extracts the contact can be indirect. Here binding means that the protein was enriched with, or labelled near, the bait; the list need not be complete. Sequences can lack the tags named with a protein.

In the case of “lipocalin-2 (LCN2), endogenous in human NP cells (from UniProt P80188 21-198)”, the binding entry was “binds”.
